According to patent publication US20240058288A1, “DRUG COCKTAIL FOR TREATMENT OF PARKINSON'S DISEASE, LEWY BODY DISEASE AND MULTIPLE SYSTEM ATROPHY” (ALETA NEUROSCIENCE, LLC, priority 2021, published 2024):
Read-outs that look alike come from different tables or passages of the source.

Tested on: human dopaminergic neurons (iCell DopaNeurons)
Assay: MPP+-induced neurotoxicity: neurite outgrowth (neurite length, branch points) of iCell DopaNeurons, Incucyte
Format: cell-based
Description: We conducted an in vitro study of the drugs in Table 1 to evaluate the neuroprotective effects of 44 conditions of treatment (Table 2, experiments 1-41; 51-53) against MPP+-induced neurodegeneration toxicity on human dopaminergic neurons (iCell® DopaNeurons: iPS cell-derived human midbrain floorplate dopaminergic neurons). Further combinations (Table 2, experiments 42-50 and Table 3) are also disclosed.
iCell DOPA neurons are neural floor plate-derived midbrain dopaminergic neurons generated from human induced pluripotent stem cells (iPSCs). Dopaminergic neurons, specifically those located in the floor plate-derived midbrain are implicated in neurological disorders such as Parkinson's disease, MSA and DLBD among others. Thus iCell DopaNeurons provide a highly relevant in vitro model to investigate these types of pathologies (42, 43). The iCellDopa neurons were supplied from FUJIFILM Cellular Dynamics.
Three different measurements were made in the experiments. 1. Neurite length in mm is a measure of increase in dendrite length of neurons. […] 2. neurite branching is measure of dendrite branching. […] 3. Cytolysis of the cells is a measure of cell death. […] Experimental conditions were measured relative to the results of healthy cells in the studies.
Procedure. iCell DOPA neurons were thawed and cultured following the provider's instructions in Brainphys medium+provided supplements+1% N2 supplement (Stemcell Technologies)+penicillin/streptomycin+Laminin. They were plated at 20000 cells per well of a 384 well plate (pre-coated with poly-D-lysine and Laminin) in 70 μL of growth medium. Cells were incubated at 37° C./5% CO2 in a humidified cell culture incubator. Half of the culture medium was changed twice a week.
MPP+-induced neurotoxicity: 24 hours after neuronal plating, half of the medium was removed and the test compounds were applied with MPP+ treatment, both concentrated at 4×, were added to the wells. For each condition, six aliquots were added, corresponding to columns A-F in Table 2. Except for the NT/NT row, in each row, either the compound indicated dissolved in its vehicle noted in Table 1 was added, or only a vehicle was added as indicated. Column F is an indicator of whether MPP+ was added. […]
For the evaluation of conditions 1-28, Neurite outgrowth was followed for subsequent 48 hours using an Incucyte Zoom platform with one phase contrast image every 4 hours, using a 20× objective. After 48 hours, the medium containing test compounds and MPP+ was removed and replaced by fresh medium containing a fluorescent cytolysis marker (red fluorescence) and a live cell marker (green fluorescence). […]
Assay endpoints and data analysis. Phase contrast images were analyzed at each time point to determine the neurite length and number of branch points per mm^2. […]

Compound | Neurite length, plate 1: Stat vs Control/MPP+ (MPP+ 100 μM, Table 6.1) | Neurite branching, Plate 1: Stat vs Control/MPP+ (MPP+ 100 μM, Table 7.1) | Neurite length, plate 1: Stat vs Control/MPP+ | Number of branch points: Stat vs Control/MPP+
C[C@H](CCC(=O)NCCS(=O)(=O)O)[C@H]1CC[C@H]2[C@@H]3[C@@H](O)C[C@@H]4C[C@H](O)CC[C@]4(C)[C@H]3CC[C@]12C [TUDCA, tauroursodeoxycholic acid] | *** (*** = p < 0.001) | ** (** = p < 0.01) |  | 
Sodium Phenylbutyrate [PBA] |  |  | * (key: NS = Not Significant; * = p < 0.05; ** = p < 0.01; *** = p < 0.001) | * (key: NS = Not Significant; * = p < 0.05; ** = p < 0.01; *** = p < 0.001)
